Laboratory results from article PMC6094399, “New tools for carbohydrate sulfation analysis: heparan sulfate 2-O-sulfotransferase (HS2ST) is a target for small-molecule protein kinase inhibitors” (Biochemical Journal, 2018).

Molecular target: T1, HS2ST (Gallus gallus, UniProt Q76KB1)
T1 construct: made in house; host or cells: Escherichia coli Rosetta-gami (DE3), modified pMAL-c2x plasmid
T1 sequence (Q76KB1 69-356): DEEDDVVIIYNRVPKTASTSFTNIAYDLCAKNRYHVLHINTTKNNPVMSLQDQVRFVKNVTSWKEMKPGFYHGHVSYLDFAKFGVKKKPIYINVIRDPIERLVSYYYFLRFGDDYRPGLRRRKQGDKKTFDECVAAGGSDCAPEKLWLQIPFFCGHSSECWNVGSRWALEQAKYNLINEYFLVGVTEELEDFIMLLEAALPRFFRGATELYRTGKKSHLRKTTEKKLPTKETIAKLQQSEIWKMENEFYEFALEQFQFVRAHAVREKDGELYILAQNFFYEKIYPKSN
Test: DSF thermal shift/stability assay of MBP-HS2ST
Type: binding, Chicken
Details: 5 μM MBP-HS2ST; result in words

thermal stabilisation of HS2ST (DSF): did not induce HS2ST stabilisation
Structure (SMILES): Nc1ncnc2c1ncn2[C@@H]1O[C@H](COP(=O)(O)OS(=O)(=O)O)[C@@H](O)[C@H]1O [APS, adenosine 5′-phosphosulfate]
